According to publication doi:10.1101/2021.01.25.428078:
No constants are given. Whether binding was seen depends on the method and setting. In cells and extracts the contact can be indirect. Some results given as binding are weak or reduced against the parent protein; the word gives no strength.

The chains behind the UniProt entries cited, without tags or fusion partners. Where a name states a change or a piece, a line headed by the entry shows the natural chain unless it says otherwise. Residues count along the entry.
UniProt Q13224, residues 27-1484: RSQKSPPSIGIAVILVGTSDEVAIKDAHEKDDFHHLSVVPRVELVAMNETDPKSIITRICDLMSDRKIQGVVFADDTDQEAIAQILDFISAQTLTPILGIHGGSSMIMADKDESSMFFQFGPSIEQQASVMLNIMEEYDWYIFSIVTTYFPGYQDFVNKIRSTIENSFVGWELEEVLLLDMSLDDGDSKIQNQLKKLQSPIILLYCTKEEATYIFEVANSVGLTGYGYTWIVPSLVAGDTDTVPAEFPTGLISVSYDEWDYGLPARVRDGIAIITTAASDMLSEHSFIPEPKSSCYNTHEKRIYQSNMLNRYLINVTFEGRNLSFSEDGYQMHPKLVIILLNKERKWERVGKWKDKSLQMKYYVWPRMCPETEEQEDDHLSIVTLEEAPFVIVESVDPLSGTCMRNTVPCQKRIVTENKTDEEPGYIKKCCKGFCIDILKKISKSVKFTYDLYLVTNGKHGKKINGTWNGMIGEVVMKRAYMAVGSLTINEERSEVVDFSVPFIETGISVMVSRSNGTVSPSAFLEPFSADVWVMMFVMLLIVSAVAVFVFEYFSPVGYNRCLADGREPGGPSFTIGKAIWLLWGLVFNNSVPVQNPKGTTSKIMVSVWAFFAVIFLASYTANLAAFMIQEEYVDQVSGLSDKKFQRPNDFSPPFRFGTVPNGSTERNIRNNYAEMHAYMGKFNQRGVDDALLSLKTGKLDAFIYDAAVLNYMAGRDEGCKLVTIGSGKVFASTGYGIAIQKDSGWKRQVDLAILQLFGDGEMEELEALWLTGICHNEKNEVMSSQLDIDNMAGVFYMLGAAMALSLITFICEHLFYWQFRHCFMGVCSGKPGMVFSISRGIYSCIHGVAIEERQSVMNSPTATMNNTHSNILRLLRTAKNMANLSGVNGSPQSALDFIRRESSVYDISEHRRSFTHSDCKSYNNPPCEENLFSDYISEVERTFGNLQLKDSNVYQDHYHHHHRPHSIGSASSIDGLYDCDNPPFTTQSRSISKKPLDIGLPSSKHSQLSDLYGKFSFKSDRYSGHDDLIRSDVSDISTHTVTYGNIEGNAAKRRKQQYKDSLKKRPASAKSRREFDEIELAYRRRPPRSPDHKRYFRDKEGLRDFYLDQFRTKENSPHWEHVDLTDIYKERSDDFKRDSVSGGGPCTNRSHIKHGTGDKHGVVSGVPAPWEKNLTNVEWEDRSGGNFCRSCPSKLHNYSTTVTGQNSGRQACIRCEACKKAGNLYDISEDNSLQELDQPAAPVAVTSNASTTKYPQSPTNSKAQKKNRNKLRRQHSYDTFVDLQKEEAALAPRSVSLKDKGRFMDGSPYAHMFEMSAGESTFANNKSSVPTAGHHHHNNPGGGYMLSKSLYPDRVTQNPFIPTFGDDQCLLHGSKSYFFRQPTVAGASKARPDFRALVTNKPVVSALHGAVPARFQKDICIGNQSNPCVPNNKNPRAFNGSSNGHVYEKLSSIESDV
UniProt P14416: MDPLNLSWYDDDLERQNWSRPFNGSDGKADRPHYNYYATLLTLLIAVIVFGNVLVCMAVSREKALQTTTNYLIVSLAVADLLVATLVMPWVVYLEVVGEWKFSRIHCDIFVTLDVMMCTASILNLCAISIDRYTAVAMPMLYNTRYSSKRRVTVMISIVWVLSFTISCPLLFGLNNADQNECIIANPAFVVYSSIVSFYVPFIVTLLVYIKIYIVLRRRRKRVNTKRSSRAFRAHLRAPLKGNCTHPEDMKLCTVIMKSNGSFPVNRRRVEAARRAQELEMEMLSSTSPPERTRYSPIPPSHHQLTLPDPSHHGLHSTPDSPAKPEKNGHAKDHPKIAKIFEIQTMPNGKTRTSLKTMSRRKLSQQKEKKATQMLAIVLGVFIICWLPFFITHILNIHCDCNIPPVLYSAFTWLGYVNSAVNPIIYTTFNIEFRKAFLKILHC

Target: GluN2B subunit of the glutamate NMDA receptor, human (human (endogenous in post-mortem caudate putamen)) (UniProt Q13224)
Experiment: proximity ligation

binding: binds
Substance: dopamine receptor 2 (D2R), human (from UniProt P14416 1-443)
